Experimental data as given in patent US8980325B2, “Compositions and methods for treating digestive disorders” (Revalesio Corporation, priority 2008, dated 2015).
For at least one compound, name, drawing or mass did not settle the structure.

Assays:
ovalbumin sensitization = test: Brown Norway rat ovalbumin sensitization model with Budesonide; type: in vivo, Brown Norway rats; details: for blood eotaxin levels: 6 and 24 hours post challenge
acid reflux = test: Oral administration to a human subject with acid reflux; type: in vivo; details: daily oral, 3 to 6 months

Structure (SMILES)	blood eotaxin levels (ovalbumin sensitization; 250 ug/kg)	blood eotaxin levels (ovalbumin sensitization; 750 ug/kg)	Eosinophil % (ovalbumin sensitization; Budesonide 750 ug/kg)	tidal volume (ovalbumin sensitization; immediately after challenge)	Penh values (ovalbumin sensitization; immediately after challenge, Budesonide 500 and 750 ug/kg)	total eosinophil count (ovalbumin sensitization; relative to normal saline alone, Budesonide 750 μg/Kg)	efficacy on acid reflux symptoms on continued use (acid reflux)
CCCC1O[C@@H]2C[C@H]3[C@@H]4CCC5=CC(=O)C=C[C@]5(C)[C@H]4[C@@H](O)C[C@]3(C)[C@]2(C(=O)CO)O1 (stereo partly shown) [Budesonide]	only had a notable effect at the later time point	reduced the blood eotaxin levels	did not have a significant effect	no change in tidal volumes	failed to significantly affect the Penh values	reduced the total eosinophil count	–
COc1ccc2[nH]c([S+]([O-])Cc3ncc(C)c(OC)c3C)nc2c1 (stereo not shown) [Prilosec, omeprazole]	–	–	–	–	–	–	decreasing efficacy
